Results on one substance are retold here after publication PMC8900821.

Sequences of proteins named here, by UniProt entry; tags and fusion partners are left off. Residues count along the entry.
UniProt P0DQD2, residues 36-392: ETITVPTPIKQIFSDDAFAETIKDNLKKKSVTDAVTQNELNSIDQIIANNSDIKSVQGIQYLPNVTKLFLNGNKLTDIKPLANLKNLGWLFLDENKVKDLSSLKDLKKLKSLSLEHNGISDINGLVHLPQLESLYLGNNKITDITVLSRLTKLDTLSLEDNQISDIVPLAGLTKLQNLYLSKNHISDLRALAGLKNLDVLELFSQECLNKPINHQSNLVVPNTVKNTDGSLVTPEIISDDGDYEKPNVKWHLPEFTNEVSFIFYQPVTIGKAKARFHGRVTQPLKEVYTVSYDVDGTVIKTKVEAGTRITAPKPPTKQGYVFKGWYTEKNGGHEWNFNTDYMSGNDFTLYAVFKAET

This assay deals with wild-type InlB392 (Listeria monocytogenes) (UniProt P0DQD2). Kind of assay: crystal structure; packing of InlB392 alone in the crystals: three crystal forms, five crystallographically independent molecules; protein at 10 mg/ml in 10 mM Tris pH 8.0, 20 mM NaCl; both purified.

Results are given in words; binding and its absence hold for the method and conditions named.

Consider “wild-type InlB392 (from UniProt P0DQD2 36-392) (domain or fragment)”, for which the binding result was “no binding”.
